The source of these data is paper PMC12431657, “Discovery and mechanistic insights of dibenzoylmethane as a broad spectrum inhibitor of coronavirus” (PLOS Pathogens, 2025).

The structures appear in SMILES notation. Where a name gives a salt, the structure may show the parent alone. About 60 (2%) of roughly 3,300 compounds showed an effect of 50% or more. The list shows a part of the results.

In the assay the test system is HCoV-OC43. Further details: species or system RD; HTS, protection from HCoV-OC43 induced cell death, luminescent cell viability (CellCounting-Lite 2.0), inhibition rate. As to conditions: 24 h post infection, 1 h compound pre-incubation; 10 µM; inhibitor.
For `CN1c2ccccc2C(=O)N2CCc3c([nH]c4ccccc34)[C@@H]21` [Evodiamine], the “OC43 Inhibition rate” value came to 2%.
For the compound `COc1ccc(-c2cc(=O)c3c(O)cc(O[C@@H]4O[C@H](CO)[C@@H](O)[C@H](O)[C@H]4O)cc3o2)cc1O` [Diosmetin-7-O-β-D-glucopyranoside], the “OC43 Inhibition rate” value is -0.5%.
Regarding `CCCCCCCCCCCCCCCCCCCCCCO` [1-Docosanol], the “OC43 Inhibition rate” value is reported as -2.1%.
The figure for `COc1ccc(O)cc1` [Mequinol] is -0.4%; for `CC(C)=CCC[C@](C)(O[C@@H]1O[C@H](CO[C@@H]2OC[C@H](O)[C@H](O)[C@H]2O)[C@@H](O)[C@H](O)[C@H]1O)[C@H]1CC[C@]2(C)[C@@H]1[C@H](O)C[C@@H]1[C@@]3(C)CC[C@H](O)C(C)(C)[C@@H]3[C@@H](O)C[C@]12C` [Ginsenoside F3] it is 2.3%.
Then `C=C1C[C@@]23CC[C@H]4[C@@](C)(CCC[C@@]4(C)C(=O)O[C@@H]4O[C@H](CO)[C@@H](O)[C@H](O[C@@H]5O[C@H](CO)[C@@H](O)[C@H](O)[C@H]5O)[C@H]4O[C@@H]4O[C@H](CO)[C@@H](O)[C@H](O)[C@H]4O)[C@@H]2CC[C@]1(O[C@@H]1O[C@H](CO)[C@@H](O)[C@H](O[C@@H]2O[C@H](CO)[C@@H](O)[C@H](O)[C@H]2O)[C@H]1O[C@@H]1O[C@H](CO)[C@@H](O)[C@H](O)[C@H]1O)C3` [Rebaudioside M], with 0.5%; and `O=c1ccoc2cc(O)ccc12` [7-Hydroxy-4H-chromen-4-one], with 0%; and `C[C@@H]1O[C@@H](O[C@@H]2C(=O)c3c(O)cc(O)cc3O[C@@H]2c2ccc(O)c(O)c2)[C@H](O)[C@H](O)[C@H]1O` [Isoastilbin], with 4.2%.
In the case of `CC1=C(C(=O)Nc2ccccc2)SCCO1` [Carboxin], the “OC43 Inhibition rate” value is recorded as -1.9%.
`CC1(C)O[C@H]2CC(=O)OC[C@]23[C@H]2CC[C@@]4(C)[C@H](c5ccoc5)OC(=O)[C@H]5O[C@]54[C@]2(C)C(=O)C[C@@H]13` [Limonin]: the “OC43 Inhibition rate” value is on record as -0.9%.
Consider `COc1ccc(C(C)=O)c(O[C@@H]2O[C@H](CO[C@@H]3OC[C@H](O)[C@H](O)[C@H]3O)[C@@H](O)[C@H](O)[C@H]2O)c1` [Apiopaeonoside], for which the “OC43 Inhibition rate” value is on record as -0.7%.
Turning to `CC1=CCC(=O)O1` [α-Angelica lactone], the “OC43 Inhibition rate” value is on record as -1%.
Then `O=C(O)c1cn[nH]c1` [4-Carboxypyrazole], with 0.1%; and `OC[C@H]1NC[C@H](O)[C@@H](O)[C@@H]1O` [1-Deoxynojirimycin], with -2.5%; and `C=C(C)[C@@H](O)COc1c2ccoc2cc2oc(=O)ccc12` [Pangelin], with 2.9%.
The figure for `COC(=O)C1=CO[C@@H](O[C@@H]2O[C@H](CO)[C@@H](O)[C@H](O)[C@H]2O)[C@@H]2C(CO)=CC[C@H]12` [Geniposide] is 0%; for `CC(=O)OC/C=C(\C)CCC=C(C)C` [Geranyl acetate] it is -0.3%.
Take `C[C@H](CCC(=O)NCCS(=O)(=O)O)[C@H]1CC[C@H]2[C@@H]3C[C@H](O)[C@@H]4C[C@H](O)CC[C@]4(C)[C@H]3CC[C@]12C` [Taurohyodeoxycholic acid]: the “OC43 Inhibition rate” value was -1.1%.
The figure for `C[C@H](CCCC(C)(C)O)[C@H]1CC[C@H]2[C@@H]3CC=C4C[C@@H](O)CC[C@]4(C)[C@H]3CC[C@]12C` [25-Hydroxycholesterol] is -3.3%.
As to `CC(C)CCC[C@@H](C)[C@H]1CC[C@H]2[C@@H]3[C@H](O)C=C4C[C@@H](O)CC[C@]4(C)[C@H]3CC[C@]12C` [7α-Hydroxycholesterol], the “OC43 Inhibition rate” value is given as 8.7%.
Consider `CC(=O)N[C@@H](Cc1cnc[nH]1)C(=O)O` [N-Acetyl-L-histidine (monohydrate)], for which the “OC43 Inhibition rate” value was found to be 2.4%.
In the case of `O=C1C[C@@H](c2ccc(O)c(O)c2)Oc2cc(O)cc(O)c21` [Eriodictyol], the “OC43 Inhibition rate” value was determined as 0.2%.
The figure for `COc1cc(/C=C/C(=O)O[C@H]2[C@H](O)[C@@H](CO)O[C@@]2(CO)O[C@H]2O[C@H](CO)[C@@H](O)[C@H](O)[C@H]2O)ccc1O` [Sibiricose A5] is -0.2%; for `CN[C@@H]1[C@H](O)[C@H](NC)[C@H]2O[C@@]3(O)C(=O)C[C@@H](C)O[C@H]3O[C@@H]2[C@H]1O` [Spectinomycin (dihydrochloride)] it is 20.6%; for `C[C@@H]1C[C@@H]([C@@H](O)C(C)(C)O)O[C@H]2C[C@@]3(C)C(=C12)C[C@H](O)[C@H]1[C@@]2(C)CCC(=O)C(C)(C)[C@@H]2CC[C@@]13C` [Alisol F] it is -0.1%.
The figure for `C[C@H](CC[C@@H](O[C@@H]1O[C@H](CO)[C@@H](O)[C@H](O)[C@H]1O[C@@H]1O[C@H](CO)[C@@H](O)[C@H](O)[C@H]1O)C(C)(C)O)[C@H]1CC[C@@]2(C)[C@H]3CC=C4[C@@H](CC[C@H](O[C@@H]5O[C@H](CO[C@@H]6O[C@H](CO)[C@@H](O)[C@H](O)[C@H]6O)[C@@H](O)[C@H](O)[C@H]5O)C4(C)C)[C@]3(C)[C@H](O)C[C@]12C` [Mogroside IV] is -0.6%.
Regarding `CC1(C)[C@@H](O[C@@H]2O[C@H](C(=O)O)[C@@H](O)[C@H](O)[C@H]2O[C@@H]2O[C@H](C(=O)O)[C@@H](O)[C@H](O)[C@H]2O)CC[C@]2(C)[C@H]3C(=O)C=C4[C@@H]5C[C@](C)(C(=O)O)CC[C@]5(C)CC[C@@]4(C)[C@]3(C)CC[C@@H]12` [Licorice-saponin H2], the “OC43 Inhibition rate” value is recorded as 0.5%.
Then `C/C(=C\CO)CCC[C@H](C)CCC[C@H](C)CCCC(C)C` [Phytol], with 0%.
With `O=c1[nH]c2ccccc2c(-c2cccc(O)c2)c1O` [Viridicatol], the “OC43 Inhibition rate” value is given as 1%.
`O=c1c(-c2ccc(O)cc2)coc2c([C@@H]3O[C@H](CO[C@@H]4OC[C@@H](O)[C@H](O)[C@H]4O)[C@@H](O)[C@H](O)[C@H]3O)c(O)ccc12` [Puerarin 6''-O-Xyloside]: the “OC43 Inhibition rate” value is -0.1%.
Then `CCc1c2c(nc3ccc(O)cc13)-c1cc3c(c(=O)n1C2)COC(=O)[C@]3(O)CC` [SN-38], with -4.8%; and `CC(=O)OC/C1=C/C[C@H]2[C@@H](/C=C(\C)C(=O)[C@@]3(OC(C)=O)C[C@H](C)[C@H](OC(=O)c4ccccc4)[C@@H]3[C@H]1OC(C)=O)C2(C)C` [Euphorbia factor L7b], with 8.6%.
